# According to PMC5337893:
# Protein sequences, listed by entry. Tags and fused reporters are not part of them.
# UniProt Q61037: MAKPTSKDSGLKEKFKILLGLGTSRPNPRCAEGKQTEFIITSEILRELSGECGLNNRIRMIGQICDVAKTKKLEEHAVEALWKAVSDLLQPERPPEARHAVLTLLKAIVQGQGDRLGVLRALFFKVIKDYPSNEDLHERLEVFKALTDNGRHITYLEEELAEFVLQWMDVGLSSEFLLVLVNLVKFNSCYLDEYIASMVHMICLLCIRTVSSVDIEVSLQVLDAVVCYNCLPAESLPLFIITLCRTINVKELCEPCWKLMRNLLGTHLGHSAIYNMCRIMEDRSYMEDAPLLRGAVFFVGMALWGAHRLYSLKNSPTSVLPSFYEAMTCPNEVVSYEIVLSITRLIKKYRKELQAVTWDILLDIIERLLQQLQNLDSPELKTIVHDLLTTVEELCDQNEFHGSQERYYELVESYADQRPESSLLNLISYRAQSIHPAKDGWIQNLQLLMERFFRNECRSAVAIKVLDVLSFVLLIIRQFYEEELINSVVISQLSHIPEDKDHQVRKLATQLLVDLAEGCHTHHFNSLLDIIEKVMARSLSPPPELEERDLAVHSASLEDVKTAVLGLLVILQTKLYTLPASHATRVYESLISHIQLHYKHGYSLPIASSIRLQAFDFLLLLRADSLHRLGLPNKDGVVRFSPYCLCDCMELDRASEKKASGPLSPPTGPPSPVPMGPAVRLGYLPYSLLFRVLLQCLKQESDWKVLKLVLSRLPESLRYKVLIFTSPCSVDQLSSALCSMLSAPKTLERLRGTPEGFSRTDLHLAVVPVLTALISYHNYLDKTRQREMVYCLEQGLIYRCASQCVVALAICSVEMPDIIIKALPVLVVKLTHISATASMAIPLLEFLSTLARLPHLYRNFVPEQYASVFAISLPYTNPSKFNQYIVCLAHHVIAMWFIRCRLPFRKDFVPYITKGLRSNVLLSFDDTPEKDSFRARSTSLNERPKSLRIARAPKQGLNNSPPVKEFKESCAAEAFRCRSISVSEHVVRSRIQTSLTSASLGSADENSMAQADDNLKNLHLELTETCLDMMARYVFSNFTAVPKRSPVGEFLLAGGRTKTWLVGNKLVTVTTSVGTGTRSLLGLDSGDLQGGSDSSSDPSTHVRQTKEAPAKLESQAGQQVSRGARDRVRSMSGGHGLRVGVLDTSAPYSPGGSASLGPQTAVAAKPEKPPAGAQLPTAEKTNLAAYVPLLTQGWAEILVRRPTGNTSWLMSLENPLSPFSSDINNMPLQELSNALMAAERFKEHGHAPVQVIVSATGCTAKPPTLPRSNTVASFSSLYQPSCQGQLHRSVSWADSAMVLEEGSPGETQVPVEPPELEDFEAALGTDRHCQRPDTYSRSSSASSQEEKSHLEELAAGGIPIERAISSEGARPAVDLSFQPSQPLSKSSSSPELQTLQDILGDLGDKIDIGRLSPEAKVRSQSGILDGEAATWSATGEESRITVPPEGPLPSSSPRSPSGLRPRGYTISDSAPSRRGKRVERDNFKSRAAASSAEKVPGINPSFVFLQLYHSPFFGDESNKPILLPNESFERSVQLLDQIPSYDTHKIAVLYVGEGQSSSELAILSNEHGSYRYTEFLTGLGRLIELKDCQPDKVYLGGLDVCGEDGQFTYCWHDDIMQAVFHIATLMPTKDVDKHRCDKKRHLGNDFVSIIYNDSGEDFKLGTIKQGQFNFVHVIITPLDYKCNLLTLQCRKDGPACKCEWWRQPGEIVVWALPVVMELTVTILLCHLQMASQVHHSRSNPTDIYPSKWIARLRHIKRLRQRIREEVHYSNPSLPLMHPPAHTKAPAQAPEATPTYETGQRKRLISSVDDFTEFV
# No constants are given. Whether binding was seen depends on the method and setting. In cells and extracts the contact can be indirect. Some results given as binding are weak or reduced against the parent protein; the word gives no strength.
# B1: tuberous sclerosis 1 (TSC1) (protein, UniProt Q9EP53 1-1161)
# chain: MAQLANIGELLSMLDSSTLGVRDDVTAIFKESLNSERGPMLVNTLVDYYLETNSQPVLHILTTLQEPHDKHLLDKINEYVGKAATRLSILSLLGHVVRLQPSWKHKLSQAPLLPSLLKCLKMDTDVVVLTTGVLVLITMLPMIPQSGKQHLLDFFDIFGRLSSWCLKKPGHVTEVYLVHLHASVYALFHRLYGMYPCNFVSFLRSHYSMKENVETFEEVVKPMMEHVRIHPELVTGSKDHELDPRRWKTLETHDVVIECAKISLDPTEASYEDGYSVSHQLSACFPYRSADVTTSPYVDTQNSYGGSTSTPSSSSRLMLFSPPGQLPQSLSSPSTRLLPEPLQASLWSPSAVCGMTTPPTSPGNVPADLSHPYSKAFGTTAGGKGTPSGTPATSPPPAPPCPQDDCVHGSAAQASATAPRKEERADSSRPYLHRQSNDRGLEDPPGSKGSVTLRNLPDFLGDLASEEDSIEKDKEEAAISKELSEITTAEADPVVPRGGFDSPFYRDSLSGSQRKTHSAASGTQGSSVNPEPLHSSLDKHGPDTPKQAFTPIDPPSGSADVSPAGDRDRQTSLETSILTPSPCKIPPQRGVSFGSGQLPPYDHLFEVALPKTACHFVSKKTEELLKKVKGNPEEDCVPSTSPMEVLDRLIEQGAGAHSKELSRLSLPSKSVDWTHFGGSPPSDELRTLRDQLLLLHNQLLYERFKRQQHALRNRRLLRKVIRAAALEEHNAAMKDQLKLQEKDIQMWKVSLQKEQARYSQLQEQRDTMVTQLHSQIRQLQHDREEFYNQSQELQTKLEDCRNMIAELRVELKKANNKVCHTELLLSQVSQKLSNSESVQQQMEFLNRQLLVLGEVNELYLEQLQSKHPDTTKEVEMMKTAYRKELEKNRSHLLQQNQRLDASQRRVLELESLLAKKDHLLLEQKKYLEDVKSQASGQLLAAESRYEAQRKITRVLELEILDLYGRLEKDGRLRKLEEDRAEAAEAAEERLDCCSDGCTDSLVGHNEEASGHNGETRTSRPGGTRASCGGRVTGGSSSSSSELSTPEKPPSQRFSSRWEPALGEPSSSIPTTVGSLPSSKSFLGMKARELFRNKSESQCDEDSVTMSSSSLSETLKTELGKDSGTENKTSLSLDAPHPSSPNSDNVGQLHIMDYNETHPEHS
# Biological target: tuberous sclerosis 2 (TSC2) (mouse (endogenous in C2C12)) (UniProt Q61037)
# Experiment: co-IP; 1 mg total protein of C2C12 lysate in CHAPS-based buffer (0.3% CHAPS, 40 mM HEPES pH 7.5, 120 mM NaCl, 1 mM EDTA), immunoprecipitated with anti-TSC2 antibody and immobilized protein A, blotted for TSC1; cells unstimulated or stimulated with PMA (100 nM, 20 min), with/without U0126 (10 uM) or BIM-I (10 uM)
binder,measurement,value
B1,binding,binds
